Test results: publication PMC7819943, “Rice protein-binding microarrays: a tool to detect cis-acting elements near promoter regions in rice”
Some of the results follow.

Target: T1, OsSMF1 (Oryza sativa, UniProt Q6ZLB0 1-436)
T1 sequence: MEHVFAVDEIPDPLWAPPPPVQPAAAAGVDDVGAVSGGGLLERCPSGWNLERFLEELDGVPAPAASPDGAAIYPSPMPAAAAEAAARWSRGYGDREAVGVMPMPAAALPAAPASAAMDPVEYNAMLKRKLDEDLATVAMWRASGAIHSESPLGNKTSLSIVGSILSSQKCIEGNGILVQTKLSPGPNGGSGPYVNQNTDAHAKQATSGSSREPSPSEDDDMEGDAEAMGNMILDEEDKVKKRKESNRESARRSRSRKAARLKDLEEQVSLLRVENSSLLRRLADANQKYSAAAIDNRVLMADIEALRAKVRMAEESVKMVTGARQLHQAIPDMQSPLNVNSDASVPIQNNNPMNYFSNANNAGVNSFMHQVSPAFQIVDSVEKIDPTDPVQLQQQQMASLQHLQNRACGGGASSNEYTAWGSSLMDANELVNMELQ
Experiment: protein-binding microarray (RPBM); PBS, 2% BSA, 51.3 ng/ul salmon testes DNA, 50 uM zinc acetate, 200 nM TF, 25 C, 1 h; high values mean tight binding
Conditions: protein: recombinant; tags: N-terminal polyhistidine and DsRed monomer fusion (pET32a); chain copies: 2; label: CyDye5-dUTP incorporated in the synthesized complementary strand; 3' TTTTT single-stranded linker to array surface; dsDNA, one strand shown
How it was run: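 For the binding signal, per-feature fluorescence intensity was read in arbitrary units on an Axon 4000B scanner. Before scanning, a 2% BSA-blocked custom Agilent array made double-stranded with Cy5-dUTP was washed after 1 h at 25 °C with 200 nM protein and 50 µM zinc acetate. The proteins were Ni–NTA-purified transcription factors with N-terminal polyhistidine and DsRed fusions, expressed in E. coli BL21-CodonPlus.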

Row | Sequence | binding signal
1 | GGTAATCCGCAAGGCCCACGACGACTCCGTGAGGGCTTGTCGGAGTCACCTAGTGCAG | 3490 fluorescence intensity (a.u.)
2 | CCCTGGGGACGTTCGCGGGCTATCTCGTTGATAAATTGGGCGGAGTCACCTAGTGCAG | 28700 fluorescence intensity (a.u.)
3 | CATGAACGTGATCACCAAGGTCTCCCTCAACCACGGCATGCGGAGTCACCTAGTGCAG | 3180 fluorescence intensity (a.u.)
4 | GTATAGACTATAGATGCAGTACTACACAAGACACGTATGACGGAGTCACCTAGTGCAG | 4920 fluorescence intensity (a.u.)
5 | AGCCACGTCACGAAAATCGCCCTCTCAGAGGGCGGCGGGCCGGAGTCACCTAGTGCAG | 17000 fluorescence intensity (a.u.)
6 | AGACGGCAAGTTTCGGCCCATTTATAAAGCCCATATGGGGCGGAGTCACCTAGTGCAG | 3640 fluorescence intensity (a.u.)
7 | CGAGGTCGAACCCAAGATACTCCAGCGAGAAATACTCGGACGGAGTCACCTAGTGCAG | 4270 fluorescence intensity (a.u.)
8 | AGTATGACCTAGGCAAGCAATTAACCAATTATAACTAGCACGGAGTCACCTAGTGCAG | 22400 fluorescence intensity (a.u.)
9 | TTGTGAGGACGAATTCTAGGAGTACTTGTGTGCTGCAGCACGGAGTCACCTAGTGCAG | 11100 fluorescence intensity (a.u.)
10 | CCCCTTGACACTGCCTTTGATGCTCGGCTCTAGCGGTCTTCGGAGTCACCTAGTGCAG | 3200 fluorescence intensity (a.u.)
11 | CATTGTTCAGTGAACCAGTGTATAGTTTGGAGTCAGGTGTCGGAGTCACCTAGTGCAG | 3380 fluorescence intensity (a.u.)
12 | CTTGCACGTCAACGTTGCCATGCCTTGCCGTTGCTTAACGCGGAGTCACCTAGTGCAG | 3330 fluorescence intensity (a.u.)
13 | GGTCCCACATGTCGGTGGGTCCCACGATATATTTTATATGCGGAGTCACCTAGTGCAG | 5460 fluorescence intensity (a.u.)
14 | GAACTCACCGGCGATGAGGGTGACGCGTTGAGGTGCGGCGCGGAGTCACCTAGTGCAG | 3590 fluorescence intensity (a.u.)
15 | CTCCTCGGCCGGCGCGGCGCCCCATGTACGTGGCTCGACCCGGAGTCACCTAGTGCAG | 3970 fluorescence intensity (a.u.)
16 | AGCGGCAGTAGCAAGGGAGCTAGGCCCCGAAGGAAAACCGCGGAGTCACCTAGTGCAG | 46000 fluorescence intensity (a.u.)
17 | ACTTGGTTCTTGCTCATCATCTTTCGCTTGCTCGTCAGCTCGGAGTCACCTAGTGCAG | 3650 fluorescence intensity (a.u.)
18 | ATCGTTATCATATTCACGTTAGGTTGCGTAGAACCTCTTACGGAGTCACCTAGTGCAG | 3150 fluorescence intensity (a.u.)
19 | GCCATTCCACATCAGTCCGTGCCGCTCTCTGCCCATTCTCCGGAGTCACCTAGTGCAG | 4560 fluorescence intensity (a.u.)
20 | TAAATTGTTAAAATTTAGCACACGCTGACTAATCCTCGCTCGGAGTCACCTAGTGCAG | 3920 fluorescence intensity (a.u.)
21 | GCGAACGCGACGCCGTCGTCCGTGGACGCGGCGGTGGCGGCGGAGTCACCTAGTGCAG | 3460 fluorescence intensity (a.u.)
22 | AACCACCCGTCATCCCTCGTCGCTCGTCACCCAGCGGCCTCGGAGTCACCTAGTGCAG | 3460 fluorescence intensity (a.u.)
23 | ACTTTTATTTATCTCTCTCTTCCACATAAGCATTTAGCTTCGGAGTCACCTAGTGCAG | 6960 fluorescence intensity (a.u.)
24 | GGTCTCAAAACGTACCTGACATCATTATACAGCTGACATTCGGAGTCACCTAGTGCAG | 6320 fluorescence intensity (a.u.)
25 | ATTGTGCTTGTATGGTTCTGATTATATGATGCGTATTTTCCGGAGTCACCTAGTGCAG | 3370 fluorescence intensity (a.u.)
26 | TTTATCCCAAAATATAACAATTTCTCCAGCAACATTCTCTCGGAGTCACCTAGTGCAG | 19200 fluorescence intensity (a.u.)
27 | GATTGCCTCTGTCAGTGACGGTTTATGAATCCGTCACCAACGGAGTCACCTAGTGCAG | 4170 fluorescence intensity (a.u.)

Row | Sequence | binding signal
28 | TATGGGCCCACACGTCAGAAAGATAAATAGCGTAGCTTCTCGGAGTCACCTAGTGCAG | 5870 fluorescence intensity (a.u.)
29 | ACCGGGTTACCTCTTCCCGACGCTGACATCCATCTCATGGCGGAGTCACCTAGTGCAG | 3210 fluorescence intensity (a.u.)
30 | TTTCGTCACCTCGGTACGTGTTCAATATGTTGCGCATATTCGGAGTCACCTAGTGCAG | 3630 fluorescence intensity (a.u.)
31 | ACCCGCGCGCCGGCCGCGTCATCGACGACATCGTGCGTACCGGAGTCACCTAGTGCAG | 3920 fluorescence intensity (a.u.)
32 | GAAATATACACAGCAGTCACACGATCTGACTCAGATAACTCGGAGTCACCTAGTGCAG | 7240 fluorescence intensity (a.u.)
33 | AATCAACTATAATTAGTTGGCTATATTATTAAACTTGATCCGGAGTCACCTAGTGCAG | 13800 fluorescence intensity (a.u.)
34 | CTAAACTTAGACACCTCAGCGCTAAATAGCACGACGCTGACGGAGTCACCTAGTGCAG | 4740 fluorescence intensity (a.u.)
35 | CTGCATGCATGTGGGGCCCACTTTCAGTGTCAGCCATAGGCGGAGTCACCTAGTGCAG | 4050 fluorescence intensity (a.u.)
36 | GATGAGGCTGCTGACTTGTTCTATGAGATGAGGGTCGAGGCGGAGTCACCTAGTGCAG | 3280 fluorescence intensity (a.u.)
37 | AGCCACGTGCGAAAGGCGTAACCTAATATTTCCCGTGTTCCGGAGTCACCTAGTGCAG | 4370 fluorescence intensity (a.u.)
38 | CCCCTATGAACGCACACACGCACACCCTATCACTATGAGCCGGAGTCACCTAGTGCAG | 3490 fluorescence intensity (a.u.)
39 | GCAGGATGAAAGCAGGGCAGGATGGCACCCACGCGGCGCCCGGAGTCACCTAGTGCAG | 3440 fluorescence intensity (a.u.)
40 | CAGGCCGACATGTGGGCTCCACGTCACGGGCGTCCGGGCCCGGAGTCACCTAGTGCAG | 13100 fluorescence intensity (a.u.)
41 | TACCATATACAAGTGCATAGTCTGATCCATATATTTATGACGGAGTCACCTAGTGCAG | 3290 fluorescence intensity (a.u.)
42 | CTAGCTAGTGTGTGGTTCGGTATCTAAACAATAATTCTCCCGGAGTCACCTAGTGCAG | 37400 fluorescence intensity (a.u.)
43 | CCCCGAGCCGTTAACGTCACCGACACGCGGGCCCCGCGAACGGAGTCACCTAGTGCAG | 4580 fluorescence intensity (a.u.)
44 | TCCTTGCTGCAATATTAAAGGAGGACGCTTCGATCGACTCCGGAGTCACCTAGTGCAG | 10800 fluorescence intensity (a.u.)
45 | CTTTTAAAACCAATCTATACATATAGTAACCATATTTGAACGGAGTCACCTAGTGCAG | 3360 fluorescence intensity (a.u.)
46 | ACCCACCGTCTGCCACGTCAGCTTGCCGCCCACCATTTGGCGGAGTCACCTAGTGCAG | 25900 fluorescence intensity (a.u.)
47 | TCAGAGAGCTGACAGCGTGTTCAGGCCGTTCGATTTTGGTCGGAGTCACCTAGTGCAG | 5030 fluorescence intensity (a.u.)
48 | TCACTAGCAACGATTGACGCAATCCGAAATCTGGGTCAGCCGGAGTCACCTAGTGCAG | 3890 fluorescence intensity (a.u.)
49 | CGCCTCCGTAGTCGGATAGACCCACGATTTCCTAGTCATCCGGAGTCACCTAGTGCAG | 5210 fluorescence intensity (a.u.)
50 | GACCCACATGGATCCCACATGTCAGGTATCCACGTCACCCCGGAGTCACCTAGTGCAG | 30800 fluorescence intensity (a.u.)
51 | ACAGGAGCACCATCAACAGCTGACAACTTGGCATTGGTATCGGAGTCACCTAGTGCAG | 3680 fluorescence intensity (a.u.)
52 | TTCTTTGTCCCGATACGAAATATTATGAAGTGTCTCGTTTCGGAGTCACCTAGTGCAG | 3200 fluorescence intensity (a.u.)
53 | TCCTGCAGCCAAGAAACACTCACACGCACGCACAAAGCGACGGAGTCACCTAGTGCAG | 4170 fluorescence intensity (a.u.)
54 | ATGTATTGTGTGCACGTGTGTGTCTGTGGAGCACGCATCTCGGAGTCACCTAGTGCAG | 3240 fluorescence intensity (a.u.)

A different layout for part of the listing above:
TTTCGTCACCTCGGTACGTGTTCAATATGTTGCGCATATTCGGAGTCACCTAGTGCAG
  binding signal: 3630 fluorescence intensity (a.u.)
TACCATATACAAGTGCATAGTCTGATCCATATATTTATGACGGAGTCACCTAGTGCAG
  binding signal: 3290 fluorescence intensity (a.u.)
